Results: PMC11612967
Results are given in words; binding and its absence hold for the method and conditions named. In cells and extracts the contact can be indirect. Some results given as binding are weak or reduced against the parent protein; the word gives no strength.

Experiments:
[1] = target: T1, S. cerevisiae Nse2 (S. cerevisiae), P38632; assay: pull-down; S. cerevisiae Smc5/6 subunits co-expressed in E. coli Rosetta (DE3), one subunit with a Twin-Strep tag (N- or C-terminal); clarified lysate on Strep-Tactin Sepharose, 1 h at 4°C, 50 mM Tris-HCl pH 7.5, 300 mM NaCl, 5% glycerol; eluted with 2.5 mM desthiobiotin; Coomassie-stained SDS-PAGE; details: remark: other sources report otherwise
T1 chain: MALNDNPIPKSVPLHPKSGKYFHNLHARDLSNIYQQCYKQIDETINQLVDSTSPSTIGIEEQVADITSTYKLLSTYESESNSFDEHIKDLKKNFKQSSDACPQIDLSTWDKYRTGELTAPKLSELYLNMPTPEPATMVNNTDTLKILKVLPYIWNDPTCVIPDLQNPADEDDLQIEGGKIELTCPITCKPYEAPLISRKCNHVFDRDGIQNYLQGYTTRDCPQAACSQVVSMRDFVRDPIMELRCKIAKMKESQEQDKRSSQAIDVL

[2] = target: T2, S. pombe Smc5 (S. pombe) (UniProt O13710); assay: pull-down; S. pombe Smc5/6 subunits co-expressed in Sf9 cells by baculovirus, one subunit tagged (N- or C-terminal); pellets processed as for the small-scale expression in E. coli; single affinity step; Coomassie-stained SDS-PAGE
T2 sequence: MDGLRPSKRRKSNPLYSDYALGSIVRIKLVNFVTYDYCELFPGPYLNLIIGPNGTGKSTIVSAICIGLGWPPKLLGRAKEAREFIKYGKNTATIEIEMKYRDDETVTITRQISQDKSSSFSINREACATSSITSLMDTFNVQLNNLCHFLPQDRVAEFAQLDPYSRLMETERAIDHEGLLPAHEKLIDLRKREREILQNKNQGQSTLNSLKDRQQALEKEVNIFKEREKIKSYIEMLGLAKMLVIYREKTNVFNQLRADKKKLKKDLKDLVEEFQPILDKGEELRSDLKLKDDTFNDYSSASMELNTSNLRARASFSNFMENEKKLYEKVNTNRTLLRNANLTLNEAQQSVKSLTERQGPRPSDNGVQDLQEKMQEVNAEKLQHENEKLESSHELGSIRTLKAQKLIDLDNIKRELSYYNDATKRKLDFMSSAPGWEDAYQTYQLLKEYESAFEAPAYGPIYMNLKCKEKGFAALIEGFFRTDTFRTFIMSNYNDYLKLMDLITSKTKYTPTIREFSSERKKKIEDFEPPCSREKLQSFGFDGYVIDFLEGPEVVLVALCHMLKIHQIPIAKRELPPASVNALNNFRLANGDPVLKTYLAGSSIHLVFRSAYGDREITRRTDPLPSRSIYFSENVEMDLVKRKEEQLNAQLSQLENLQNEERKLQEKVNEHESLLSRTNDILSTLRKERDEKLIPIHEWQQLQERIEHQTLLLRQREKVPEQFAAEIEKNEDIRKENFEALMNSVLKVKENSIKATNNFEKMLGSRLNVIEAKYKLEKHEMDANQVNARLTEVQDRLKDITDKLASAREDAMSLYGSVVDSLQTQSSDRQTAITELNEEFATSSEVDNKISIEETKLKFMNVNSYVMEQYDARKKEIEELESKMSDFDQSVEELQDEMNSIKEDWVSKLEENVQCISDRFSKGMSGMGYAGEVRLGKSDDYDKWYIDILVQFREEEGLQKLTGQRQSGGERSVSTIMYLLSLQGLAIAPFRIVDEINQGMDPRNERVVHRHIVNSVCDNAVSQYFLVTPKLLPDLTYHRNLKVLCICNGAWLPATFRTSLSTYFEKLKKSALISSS

[3] = target: T3, S. pombe Smc6 (S. pombe) (UniProt P53692); assay: as above
T3 sequence: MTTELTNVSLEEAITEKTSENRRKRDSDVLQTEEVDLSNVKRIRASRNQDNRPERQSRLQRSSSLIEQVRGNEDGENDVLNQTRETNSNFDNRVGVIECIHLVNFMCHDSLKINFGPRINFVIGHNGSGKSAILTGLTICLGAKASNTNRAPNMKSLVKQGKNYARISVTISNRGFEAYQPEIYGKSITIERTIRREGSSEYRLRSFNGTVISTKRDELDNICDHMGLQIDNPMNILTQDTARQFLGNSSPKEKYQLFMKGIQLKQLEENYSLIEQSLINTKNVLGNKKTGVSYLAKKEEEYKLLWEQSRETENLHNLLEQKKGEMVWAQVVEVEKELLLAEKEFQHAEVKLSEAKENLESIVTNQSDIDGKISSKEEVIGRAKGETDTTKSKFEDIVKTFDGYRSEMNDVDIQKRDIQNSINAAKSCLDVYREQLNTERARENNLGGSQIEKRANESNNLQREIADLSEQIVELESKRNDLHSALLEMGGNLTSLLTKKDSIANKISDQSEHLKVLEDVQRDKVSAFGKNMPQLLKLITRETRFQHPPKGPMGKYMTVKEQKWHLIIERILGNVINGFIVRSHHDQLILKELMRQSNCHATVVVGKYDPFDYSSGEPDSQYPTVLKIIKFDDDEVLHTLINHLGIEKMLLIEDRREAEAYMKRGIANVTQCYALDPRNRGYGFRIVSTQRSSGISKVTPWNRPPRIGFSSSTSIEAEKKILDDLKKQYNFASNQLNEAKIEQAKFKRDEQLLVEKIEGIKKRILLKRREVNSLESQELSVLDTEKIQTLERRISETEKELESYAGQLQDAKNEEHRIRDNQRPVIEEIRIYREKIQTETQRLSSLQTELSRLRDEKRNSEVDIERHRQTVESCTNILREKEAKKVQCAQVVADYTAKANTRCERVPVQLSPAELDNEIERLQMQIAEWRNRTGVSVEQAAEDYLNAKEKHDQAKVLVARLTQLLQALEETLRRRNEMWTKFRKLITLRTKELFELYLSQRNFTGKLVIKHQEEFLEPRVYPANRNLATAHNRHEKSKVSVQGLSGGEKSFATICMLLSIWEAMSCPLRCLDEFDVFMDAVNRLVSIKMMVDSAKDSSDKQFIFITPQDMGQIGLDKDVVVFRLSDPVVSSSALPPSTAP

[4] = target: T4, S. pombe Nse2 (S. pombe) (UniProt Q4PIR3); assay: as above
T4 sequence: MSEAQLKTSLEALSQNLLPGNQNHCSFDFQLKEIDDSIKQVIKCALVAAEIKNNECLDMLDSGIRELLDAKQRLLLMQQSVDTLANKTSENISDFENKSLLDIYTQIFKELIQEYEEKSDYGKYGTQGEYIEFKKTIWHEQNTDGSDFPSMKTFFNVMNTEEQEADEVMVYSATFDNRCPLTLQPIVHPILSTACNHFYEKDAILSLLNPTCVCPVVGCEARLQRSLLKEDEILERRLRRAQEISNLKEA

[5] = target: T5, S. pombe Nse3 (S. pombe) (UniProt Q9Y7U4); assay: as above
T5 sequence: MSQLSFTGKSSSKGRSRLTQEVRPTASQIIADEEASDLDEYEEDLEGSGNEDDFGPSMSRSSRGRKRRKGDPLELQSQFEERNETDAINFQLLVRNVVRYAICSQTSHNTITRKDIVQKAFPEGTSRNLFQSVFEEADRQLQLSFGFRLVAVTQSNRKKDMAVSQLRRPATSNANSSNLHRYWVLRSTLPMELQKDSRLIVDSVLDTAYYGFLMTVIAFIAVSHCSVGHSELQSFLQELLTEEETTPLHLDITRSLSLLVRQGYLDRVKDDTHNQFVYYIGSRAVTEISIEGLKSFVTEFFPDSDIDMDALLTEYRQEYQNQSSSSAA

[6] = target: T6, S. pombe Nse4 (S. pombe) (UniProt Q6BDR8); assay: as above
T6 sequence: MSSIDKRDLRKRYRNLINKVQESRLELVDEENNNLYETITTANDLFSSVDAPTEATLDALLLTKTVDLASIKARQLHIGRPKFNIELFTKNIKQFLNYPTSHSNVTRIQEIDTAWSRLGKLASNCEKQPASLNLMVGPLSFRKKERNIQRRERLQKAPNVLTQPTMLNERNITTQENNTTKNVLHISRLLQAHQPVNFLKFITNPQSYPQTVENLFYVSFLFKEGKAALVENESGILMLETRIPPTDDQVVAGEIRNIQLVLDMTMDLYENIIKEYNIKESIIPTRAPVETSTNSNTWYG

[7] = target: T7, S. pombe Nse1 (S. pombe) (UniProt Q53EK2); assay: as above
T7 sequence: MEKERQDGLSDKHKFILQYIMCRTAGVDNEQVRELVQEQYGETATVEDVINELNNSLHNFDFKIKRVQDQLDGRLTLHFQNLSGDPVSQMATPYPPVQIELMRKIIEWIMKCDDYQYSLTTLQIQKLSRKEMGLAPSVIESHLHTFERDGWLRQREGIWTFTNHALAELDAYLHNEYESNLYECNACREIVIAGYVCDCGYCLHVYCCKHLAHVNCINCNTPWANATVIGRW

Measured: binding

B1: S. cerevisiae Nse1, Q07913 1-336 (protein)
chain: MEVHEEQVSAPVTGDATAKYLLQYILSARGICHENALILALMRLETDASTLNTEWSIQQWVDKLNDYINAINVKLNLLGYKIIRINHGIGRNAVTLKAKQNFESFEDNTAIRAHNNDYAVLQSIVLPESNRFFVYVNLASTEETKLATRFNQNEIEFMKWAIEQFMISGETIVEGPALETSIIVKEVNRILVAATGDSNLAKWRKFSTFTVGSTNLFQFQELTATDIEDLLLRLCELKWFYRTQEGKFGIDLRCIAELEEYLTSMYNLNTCQNCHKLAIQGVRCGNESCREENEETGENSLSQIWHVDCFKHYITHVSKNCDRCGSSLITEGVYVI
binds: [1]

B2: S. pombe Nse1 (protein, UniProt Q53EK2 1-232)
chain: T7 sequence
not listed: [1] | [7]
binds: all other assays above

B3: S. pombe Nse2 (protein, UniProt Q4PIR3 1-250)
chain: T4 sequence
not listed: [1] | [4]
binds: all other assays above

B4: S. pombe Nse3 (protein, UniProt Q9Y7U4 1-328)
chain: T5 sequence
not listed: [1] | [5]
binds: all other assays above

B5: S. pombe Nse4 (protein, UniProt Q6BDR8 1-300)
chain: T6 sequence
not listed: [1] | [6]
binds: all other assays above
